The test addresses T1, C. elegans KCC-2 (Caenorhabditis elegans, UniProt G5EEC9).
T1 sequence (G5EEC9 1-1079): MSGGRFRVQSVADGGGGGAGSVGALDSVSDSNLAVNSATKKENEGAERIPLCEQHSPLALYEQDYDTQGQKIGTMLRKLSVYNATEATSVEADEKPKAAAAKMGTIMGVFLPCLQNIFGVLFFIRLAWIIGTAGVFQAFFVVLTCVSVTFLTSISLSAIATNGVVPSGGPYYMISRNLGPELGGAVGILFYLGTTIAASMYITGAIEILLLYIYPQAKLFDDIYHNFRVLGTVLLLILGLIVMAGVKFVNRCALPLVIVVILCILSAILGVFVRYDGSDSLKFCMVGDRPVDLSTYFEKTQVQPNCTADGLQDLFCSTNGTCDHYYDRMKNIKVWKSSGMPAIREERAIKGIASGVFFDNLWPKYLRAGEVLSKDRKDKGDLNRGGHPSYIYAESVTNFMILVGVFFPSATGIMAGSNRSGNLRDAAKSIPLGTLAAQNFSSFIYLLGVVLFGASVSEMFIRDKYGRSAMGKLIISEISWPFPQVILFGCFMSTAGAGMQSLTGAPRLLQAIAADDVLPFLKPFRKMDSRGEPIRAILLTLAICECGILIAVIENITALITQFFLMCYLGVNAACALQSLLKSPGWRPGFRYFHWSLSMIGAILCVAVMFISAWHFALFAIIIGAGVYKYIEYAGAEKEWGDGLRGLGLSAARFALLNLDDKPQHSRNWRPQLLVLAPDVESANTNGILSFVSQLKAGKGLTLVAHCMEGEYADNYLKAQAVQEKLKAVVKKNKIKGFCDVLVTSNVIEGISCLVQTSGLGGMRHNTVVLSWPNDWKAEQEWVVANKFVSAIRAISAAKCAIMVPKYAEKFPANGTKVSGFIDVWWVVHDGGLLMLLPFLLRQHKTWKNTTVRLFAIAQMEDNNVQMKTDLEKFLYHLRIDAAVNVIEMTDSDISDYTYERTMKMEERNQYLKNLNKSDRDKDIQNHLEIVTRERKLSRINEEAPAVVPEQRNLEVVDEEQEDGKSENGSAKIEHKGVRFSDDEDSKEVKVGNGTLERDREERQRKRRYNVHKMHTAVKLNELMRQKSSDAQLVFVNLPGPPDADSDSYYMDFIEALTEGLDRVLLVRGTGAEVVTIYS
The test can be described thus: […] influx into Xenopus oocytes. Type of test: cell-based.

Structures are written as SMILES.

By IC50 is commonly meant the concentration at which inhibition is half-maximal. Read a high IC50 as lower potency.

Regarding `NS(=O)(=O)c1cc(C(=O)O)c(NCc2ccco2)cc1Cl` [furosemide], the midpoint of inhibition, the IC50, lay at 21 ± 4 µM.
